Laboratory results: PubChem BioAssay AID720705 (Peter MacCallum Cancer Centre, 2013)

Test: 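Kinases whose loss changes AT1R-driven EGFR activation, checked with four siRNAs each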 (follow-up of hits)
Cell system: human HMEC-LST-AT1R mammary epithelial cells
Reagents: single siRNA against human genes, 25 nM per duplex
Time to read-out: 72 h after transfection
Challenge: angiotensin II stimulation; dose and duration not given
Measured: 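Signed fold change in phospho-ERK1/2 (AlphaScreen SureFire bead assay) after angiotensin II, relative to the average of mock and GFP siRNA controls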
Direction: duplexes agreeing on an effect (of 4): higher = more duplexes of this gene agree on an effect; signed phospho-ERK fold change vs controls: higher = more ERK phosphorylation than controls; negative values are decreases
Call rule: 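a duplex scores when phospho-ERK changes more than 1.5-fold in either direction; a gene is active if at least 2 of 4 duplexes agree in direction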
Calls: active = high/medium confidence (2-4 of 4 duplexes); inactive = low confidence (0-1 of 4 duplexes)
Here is one part, drawn at random, of 200 deposited reagents. Of all reagents, 116 (58%) got an active call. 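Negative fold changes mean less ERK phosphorylation; hits count in both directions; calls are per gene.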 A number with no mark means an inactive call. The numbers tell different reagents against one gene apart. Reagent sequences are not shown.

With knock-down of IPPK #1, the record shows duplexes agreeing on an effect (of 4) = 2 (active); signed phospho-ERK fold change vs controls 1.97.
IPPK #2 showed duplexes agreeing on an effect (of 4) = 2 (active); signed phospho-ERK fold change vs controls -1.35.
Silencing of IPPK #3 gave: duplexes agreeing on an effect (of 4) = 2 (active); signed phospho-ERK fold change vs controls -1.51.
IPPK #4 scored duplexes agreeing on an effect (of 4) = 2 (active); signed phospho-ERK fold change vs controls -2.39.
After knock-down of AKT3 #1, the screen gave duplexes agreeing on an effect (of 4) = 2 (active); signed phospho-ERK fold change vs controls 1.4.
Knock-down of AKT3 #2 came out at: duplexes agreeing on an effect (of 4) = 2 (active); signed phospho-ERK fold change vs controls -0.196.
For AKT3 #3 the deposit lists duplexes agreeing on an effect (of 4) = 2 (active); signed phospho-ERK fold change vs controls -2.33.
AKT3 #4 scored duplexes agreeing on an effect (of 4) = 2 (active); signed phospho-ERK fold change vs controls -1.83.
CDK11A #1 scored duplexes agreeing on an effect (of 4) = 3 (active); signed phospho-ERK fold change vs controls 1.54.
CDK11A #2 showed duplexes agreeing on an effect (of 4) = 3 (active); signed phospho-ERK fold change vs controls -2.91.
After knock-down of CDK11A #3, the screen gave duplexes agreeing on an effect (of 4) = 3 (active); signed phospho-ERK fold change vs controls -1.53.
With knock-down of CDK11A #4 the results were duplexes agreeing on an effect (of 4) = 3 (active); signed phospho-ERK fold change vs controls -3.14.
Silencing of AGK #1 gave: duplexes agreeing on an effect (of 4) = 1; signed phospho-ERK fold change vs controls 1.16.
With knock-down of AGK #2, the record shows duplexes agreeing on an effect (of 4) = 1; signed phospho-ERK fold change vs controls 1.29.
Knock-down of AGK #3 gave: duplexes agreeing on an effect (of 4) = 1; signed phospho-ERK fold change vs controls -1.76.
AGK #4 gave duplexes agreeing on an effect (of 4) = 1; signed phospho-ERK fold change vs controls 1.22.
CSNK2B #1 scored duplexes agreeing on an effect (of 4) = 2 (active); signed phospho-ERK fold change vs controls 1.24.
Knock-down of CSNK2B #2 gave: duplexes agreeing on an effect (of 4) = 2 (active); signed phospho-ERK fold change vs controls -3.17.
Silencing of CSNK2B #3 resulted in: duplexes agreeing on an effect (of 4) = 2 (active); signed phospho-ERK fold change vs controls -1.43.
Against CSNK2B #4, the values are duplexes agreeing on an effect (of 4) = 2 (active); signed phospho-ERK fold change vs controls -1.62.
AKT1 #1 showed duplexes agreeing on an effect (of 4) = 3 (active); signed phospho-ERK fold change vs controls -2.05.
Against AKT1 #2, the values are duplexes agreeing on an effect (of 4) = 3 (active); signed phospho-ERK fold change vs controls -1.54.
With knock-down of AKT1 #3, the screen gave duplexes agreeing on an effect (of 4) = 3 (active); signed phospho-ERK fold change vs controls -2.33.
Knock-down of AKT1 #4 gave: duplexes agreeing on an effect (of 4) = 3 (active); signed phospho-ERK fold change vs controls -1.41.
Silencing of DLG1 #1 came out at: duplexes agreeing on an effect (of 4) = 1; signed phospho-ERK fold change vs controls -2.2.
After knock-down of DLG1 #2, the screen gave duplexes agreeing on an effect (of 4) = 1; signed phospho-ERK fold change vs controls -1.27.
Depletion of DLG1 #3 gave: duplexes agreeing on an effect (of 4) = 1; signed phospho-ERK fold change vs controls 1.23.
With knock-down of DLG1 #4, the screen gave duplexes agreeing on an effect (of 4) = 1; signed phospho-ERK fold change vs controls 1.28.
